Measured values published in paper PMC3511043 (Beilstein Journal of Organic Chemistry, 2012).

Assay: general procedure: solution-phase peptide synthesis; EDCI/HOAt; EEDQ; ethyl chloroformate/NMM (mixed carbonate); Ugi four-component r

Substance	step yield (late stage modification step)	step yield (coupling step)
2-(2-(N-Benzyl-2-(2-(dimethylamino)benzamido)acetamido)-3-methylbutan-amido)benzoic acid	88%	
Methyl 2-(2-(N-(4-chlorobenzyl)-2-(2-(dimethylamino)benzamido)acetamido)-3-methylbutanamido)benzoate		70%
2-(2-(N-(4-Chlorobenzyl)-2-(2-(dimethylamino)benzamido)acetamido)-3-methyl-butanamido)benzoic acid	91%	
Methyl 2-(2-(N-benzyl-2-(2-(dimethylamino)benzamido)acetamido)-3-methyl-butanamido)benzoate		61%
Methyl 2-(2-(2-(2-(dimethylamino)benzamido)-N-(4-fluorobenzyl)acetamido)-3-methylbutanamido)benzoate		58%
2-(2-(2-(2-(Dimethylamino)benzamido)-N-propylacetamido)-3-methylbutan-amido)benzoic acid	83%	
Methyl 2-(2-(2-(2-(dimethylamino)benzamido)-N-methylacetamido)-3-methyl-butanamido)benzoate		51%
2-(2-(2-(2-(Dimethylamino)benzamido)-N-phenethylacetamido)-3-methylbutan-amido)benzoic acid	81%	
(S)-Benzyl 2-(2-(2-(2-(dimethylamino)benzamido)-N-methylacetamido)-3-methylbutanamido)benzoate		85%
2-(2-(2-(2-(Dimethylamino)benzamido)-N-(4-fluorobenzyl)acetamido)-3-methyl-butanamido)benzoic acid	90%	
Methyl 2-(2-(2-(2-(dimethylamino)benzamido)-N-phenethylacetamido)-3-methyl-butanamido)benzoate		52%
Methyl 2-(2-(2-(2-(dimethylamino)benzamido)-N-propylacetamido)-3-methyl-butanamido)benzoate		55%
